Measured values reported in article PMC11275985.
Results are given in words; binding and its absence hold for the method and conditions named. For part of these data: Binding seen in cells or lysates may run through a third protein. Some binding calls cover weakened binding; strength is not graded here.

Protein sequences, listed by entry. Tags and fused reporters are not part of them.
UniProt O00327: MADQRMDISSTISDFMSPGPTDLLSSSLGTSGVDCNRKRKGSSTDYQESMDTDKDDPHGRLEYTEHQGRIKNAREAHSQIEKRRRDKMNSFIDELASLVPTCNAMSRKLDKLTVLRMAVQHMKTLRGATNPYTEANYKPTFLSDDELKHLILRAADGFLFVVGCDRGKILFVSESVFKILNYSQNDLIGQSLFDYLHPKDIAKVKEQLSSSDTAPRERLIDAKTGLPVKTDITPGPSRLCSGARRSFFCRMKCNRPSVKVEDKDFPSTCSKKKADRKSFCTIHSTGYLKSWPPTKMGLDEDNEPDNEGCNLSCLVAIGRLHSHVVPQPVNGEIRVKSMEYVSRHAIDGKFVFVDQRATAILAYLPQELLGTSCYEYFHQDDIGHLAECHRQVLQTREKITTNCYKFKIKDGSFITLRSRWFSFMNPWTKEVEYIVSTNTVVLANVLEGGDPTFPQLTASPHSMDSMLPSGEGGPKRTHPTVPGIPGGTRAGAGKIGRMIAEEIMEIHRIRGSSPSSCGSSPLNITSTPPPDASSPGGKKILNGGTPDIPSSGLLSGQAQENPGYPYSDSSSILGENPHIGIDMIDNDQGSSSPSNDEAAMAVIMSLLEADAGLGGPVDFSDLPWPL
UniProt Q99814: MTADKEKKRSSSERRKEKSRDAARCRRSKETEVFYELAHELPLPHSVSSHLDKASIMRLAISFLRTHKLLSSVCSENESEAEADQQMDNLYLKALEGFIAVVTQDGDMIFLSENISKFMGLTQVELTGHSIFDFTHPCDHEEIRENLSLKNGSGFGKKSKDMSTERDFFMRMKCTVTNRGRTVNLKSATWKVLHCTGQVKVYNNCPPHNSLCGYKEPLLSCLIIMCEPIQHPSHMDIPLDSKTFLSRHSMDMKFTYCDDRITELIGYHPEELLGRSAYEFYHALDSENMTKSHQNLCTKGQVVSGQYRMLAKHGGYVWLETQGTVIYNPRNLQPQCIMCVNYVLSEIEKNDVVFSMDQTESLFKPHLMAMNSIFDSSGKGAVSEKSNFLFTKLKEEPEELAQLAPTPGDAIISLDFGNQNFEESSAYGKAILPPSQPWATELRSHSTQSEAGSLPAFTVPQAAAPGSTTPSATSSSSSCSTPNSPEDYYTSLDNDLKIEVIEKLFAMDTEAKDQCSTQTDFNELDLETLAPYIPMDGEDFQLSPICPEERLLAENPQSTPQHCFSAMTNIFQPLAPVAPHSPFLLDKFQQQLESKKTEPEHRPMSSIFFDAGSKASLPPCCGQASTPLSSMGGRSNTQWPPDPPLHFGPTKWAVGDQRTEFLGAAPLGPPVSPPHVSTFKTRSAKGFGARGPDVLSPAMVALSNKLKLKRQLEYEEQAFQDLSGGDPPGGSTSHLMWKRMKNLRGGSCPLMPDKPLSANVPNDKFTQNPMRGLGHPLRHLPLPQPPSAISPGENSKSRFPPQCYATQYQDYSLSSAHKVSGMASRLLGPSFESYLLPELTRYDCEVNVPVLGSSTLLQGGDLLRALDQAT

Assays:
[1] = target: FLAG-tagged BMAL1 (786O cells) (UniProt O00327); assay: co-IP; 786O cells transiently transfected with pTwist FLAG plasmids; RIPA lysate; FLAG tag immunoprecipitated with anti-Flag M2 agarose beads; immunoblot
[2] = target: Full-length human BMAL1 with an N-terminal Strep tag (human) (UniProt O00327); assay: mass photometry; purified co-expressed complex at low concentration (20 nM); 20 mM Tris-HCl pH 8.0, 100 mM KCl, 0.5 mM TCEP; Refeyn OneMP; both purified
[3] = target: Full-length human BMAL1 with an N-terminal Strep tag (human) (UniProt O00327); assay: co-elution in heparin chromatography; both proteins co-expressed in insect cells; Strep-Tactin eluate diluted to 100 mM NaCl, applied to a heparin column, eluted with a linear salt gradient; SDS-PAGE of the fractions; both purified

| binding [1] | binding [2] | binding [3] | Substance |
| --- | --- | --- | --- |
| binds | – | – | endogenous wildtype HIF2α (786O cells) (from UniProt Q99814 1-870) |
| – | binds | binds | Full-length human HIF2α with an N-terminal Strep tag (from UniProt Q99814 1-870) |
